Values joined by “and” are separate entries in the source; they are usually repeats but may differ in a detail not shown here. Equal entries are not always repeated. Some of the results follow. For some assays here: The source does not settle which construct or isoform was used.
How the values were obtained:
Assay in all cases: protein microarray (ProtoArray v5.0), streptavidin-Alexa Fluor 647
Conditions in all cases: 3'-biotin; 20 mM Tris (pH 7.5), 5 mM MgCl2, 100 mM KCl, 0.1% Tween-20, A/T-rich and random oligonucleotide blockers; temperature not stated; high values mean tight binding
BET1 (human) = tested on: BET1 (human)
BHMT (human) = tested on: BHMT (human)
BHMT2 (human) = tested on: BHMT2 (human)
BID (human) = tested on: BID (human)
BIN1 = molecular target: T1, BIN1 (UniProt O00499)
T1 sequence: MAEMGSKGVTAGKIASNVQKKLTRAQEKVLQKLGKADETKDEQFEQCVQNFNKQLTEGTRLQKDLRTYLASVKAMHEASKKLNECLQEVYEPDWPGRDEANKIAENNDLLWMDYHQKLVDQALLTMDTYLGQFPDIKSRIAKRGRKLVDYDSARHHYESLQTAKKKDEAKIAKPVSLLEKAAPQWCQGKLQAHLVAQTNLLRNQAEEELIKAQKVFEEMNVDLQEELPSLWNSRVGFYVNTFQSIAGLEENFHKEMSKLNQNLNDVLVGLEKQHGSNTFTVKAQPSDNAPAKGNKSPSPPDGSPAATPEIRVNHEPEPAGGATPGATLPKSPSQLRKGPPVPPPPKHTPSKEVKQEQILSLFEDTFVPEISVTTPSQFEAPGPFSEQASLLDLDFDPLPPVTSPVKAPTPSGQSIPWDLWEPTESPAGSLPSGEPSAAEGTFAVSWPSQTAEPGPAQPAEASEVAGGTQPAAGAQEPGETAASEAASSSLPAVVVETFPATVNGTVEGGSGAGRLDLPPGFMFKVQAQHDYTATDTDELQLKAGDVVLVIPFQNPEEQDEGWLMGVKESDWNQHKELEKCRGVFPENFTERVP

The chains behind the UniProt entries cited, without tags or fusion partners. Where a name states a change or a piece, a line headed by the entry shows the natural chain unless it says otherwise.
UniProt Q15059: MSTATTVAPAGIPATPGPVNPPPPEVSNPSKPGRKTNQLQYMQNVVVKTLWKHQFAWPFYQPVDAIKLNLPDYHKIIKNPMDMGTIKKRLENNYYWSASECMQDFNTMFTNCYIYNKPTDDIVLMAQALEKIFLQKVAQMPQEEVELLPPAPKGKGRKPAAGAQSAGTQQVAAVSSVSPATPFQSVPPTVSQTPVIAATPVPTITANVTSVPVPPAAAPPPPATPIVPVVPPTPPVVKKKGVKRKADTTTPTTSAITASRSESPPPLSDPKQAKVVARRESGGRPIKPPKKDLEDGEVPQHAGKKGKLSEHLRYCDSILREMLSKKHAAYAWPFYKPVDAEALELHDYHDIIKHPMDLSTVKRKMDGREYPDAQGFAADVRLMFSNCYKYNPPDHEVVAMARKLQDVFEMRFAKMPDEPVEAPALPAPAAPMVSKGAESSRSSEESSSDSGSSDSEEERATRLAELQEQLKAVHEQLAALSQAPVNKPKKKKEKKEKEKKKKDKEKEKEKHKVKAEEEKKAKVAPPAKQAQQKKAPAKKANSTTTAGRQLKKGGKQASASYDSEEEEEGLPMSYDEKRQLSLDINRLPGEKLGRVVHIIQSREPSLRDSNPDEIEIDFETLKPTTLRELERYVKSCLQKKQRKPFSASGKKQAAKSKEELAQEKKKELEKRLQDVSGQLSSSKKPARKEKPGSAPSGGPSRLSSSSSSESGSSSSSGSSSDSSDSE

BIRC5 (human) = tested on: BIRC5 (human)
BIRC7 (human) = tested on: BIRC7 (human)
BIRC8 = molecular target: T2, BIRC8 (UniProt Q96P09)
T2 sequence: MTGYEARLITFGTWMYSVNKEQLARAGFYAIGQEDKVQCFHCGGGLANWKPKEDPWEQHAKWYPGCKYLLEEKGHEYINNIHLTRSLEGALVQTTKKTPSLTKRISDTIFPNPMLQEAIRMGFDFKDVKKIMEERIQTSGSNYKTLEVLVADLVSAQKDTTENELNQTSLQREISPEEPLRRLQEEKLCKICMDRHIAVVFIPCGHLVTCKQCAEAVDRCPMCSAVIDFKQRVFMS

BLCAP (human) = tested on: BLCAP (human)
BLK (human) = tested on: BLK (human)
BLOC1S2 (human) = tested on: BLOC1S2 (human)
BLVRA (human) = tested on: BLVRA (human)
BLVRB (human) = tested on: BLVRB (human)
BMF (human) = tested on: BMF (human)
BMPR1B (human) = tested on: BMPR1B (human)
BMX (human) = tested on: BMX (human)
BNIP1 (human) = tested on: BNIP1 (human)
BNIP3L (human) = tested on: BNIP3L (human)
BRD3 = BRD3 (UniProt Q15059)
BRD9 (human) = tested on: BRD9 (human)

Question: What does the source list for “GGGAGGCTGAGGCAGG [G4-1 biotinylated (PQS2)]”?
Answer: binding signal (BET1 (human)): -0.284 z-score; binding signal (BHMT (human)): -0.351 z-score; binding signal (BHMT2 (human)): -0.317 z-score; binding signal (BID (human)): -0.354 z-score and -0.33 z-score and -0.355 z-score; binding signal (BIN1): -0.337 z-score and -0.341 z-score; binding signal (BIRC5 (human)): -0.356 z-score; binding signal (BIRC7 (human)): -0.337 z-score; binding signal (BIRC8): -0.37 z-score; binding signal (BLCAP (human)): -0.297 z-score; binding signal (BLK (human)): -0.314 z-score; binding signal (BLOC1S2 (human)): -0.342 z-score; binding signal (BLVRA (human)): -0.306 z-score; binding signal (BLVRB (human)): -0.324 z-score; binding signal (BMF (human)): -0.35 z-score and -0.361 z-score; binding signal (BMPR1B (human)): -0.23 z-score; binding signal (BMX (human)): -0.283 z-score; binding signal (BNIP1 (human)): -0.3 z-score; binding signal (BNIP3L (human)): -0.319 z-score; binding signal (BRD3): 8.82 z-score; binding signal (BRD9 (human)): -0.348 z-score
